Test results as given in patent publication US6953794.
Results are given in words; binding and its absence hold for the method and conditions named. Some binding calls cover weakened binding; strength is not graded here.

Protein sequences, listed by entry. Tags and fused reporters are not part of them. Lines headed by an entry give the natural chain unless they say otherwise; changes in a name come on top. Chains listed by the source or under a name are the forms on record and can include a tag or linker.
fetal rat tau (P19332, form named): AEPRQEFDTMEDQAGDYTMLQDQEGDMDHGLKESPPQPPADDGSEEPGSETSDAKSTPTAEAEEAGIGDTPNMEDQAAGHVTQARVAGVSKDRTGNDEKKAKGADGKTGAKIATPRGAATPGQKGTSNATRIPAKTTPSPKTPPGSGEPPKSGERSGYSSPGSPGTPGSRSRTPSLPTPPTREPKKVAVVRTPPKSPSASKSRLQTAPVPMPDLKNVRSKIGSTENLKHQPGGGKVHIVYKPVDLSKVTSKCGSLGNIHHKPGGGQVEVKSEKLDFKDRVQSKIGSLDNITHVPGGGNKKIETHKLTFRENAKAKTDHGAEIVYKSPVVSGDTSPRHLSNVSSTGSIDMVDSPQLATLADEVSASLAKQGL
UniProt P10636: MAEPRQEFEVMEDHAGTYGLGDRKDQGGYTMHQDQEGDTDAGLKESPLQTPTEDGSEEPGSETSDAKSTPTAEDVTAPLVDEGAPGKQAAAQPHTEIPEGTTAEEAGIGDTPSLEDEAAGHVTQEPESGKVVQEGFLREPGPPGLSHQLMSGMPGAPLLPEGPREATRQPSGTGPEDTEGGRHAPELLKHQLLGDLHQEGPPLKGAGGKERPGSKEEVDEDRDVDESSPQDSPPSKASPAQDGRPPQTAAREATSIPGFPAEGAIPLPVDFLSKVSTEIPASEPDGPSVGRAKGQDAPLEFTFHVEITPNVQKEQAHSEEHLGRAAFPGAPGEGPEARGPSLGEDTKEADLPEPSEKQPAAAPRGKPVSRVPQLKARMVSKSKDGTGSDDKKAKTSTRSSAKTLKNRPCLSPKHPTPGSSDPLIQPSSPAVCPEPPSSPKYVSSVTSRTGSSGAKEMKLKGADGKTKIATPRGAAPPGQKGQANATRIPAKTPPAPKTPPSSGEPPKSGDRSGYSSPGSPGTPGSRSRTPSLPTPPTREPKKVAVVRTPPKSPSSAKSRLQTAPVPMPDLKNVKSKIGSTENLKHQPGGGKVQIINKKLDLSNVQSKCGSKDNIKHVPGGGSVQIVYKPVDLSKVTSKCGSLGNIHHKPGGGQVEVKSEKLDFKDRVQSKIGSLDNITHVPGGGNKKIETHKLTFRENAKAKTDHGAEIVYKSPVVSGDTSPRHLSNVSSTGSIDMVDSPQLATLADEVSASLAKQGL

Key:
fetal rat tau (rat) [1] = molecular target: fetal rat tau (rat) (UniProt P19332); assay: ELISA tau-tau binding assay; newborn tau in the solid phase
[2] = molecular target: hyperphosphorylated newborn tau (rat) (UniProt P19332); assay: ELISA tau-tau binding assay; hyperphosphorylated newborn tau in the solid phase
fetal rat tau (rat) [3] = molecular target: fetal rat tau (rat) (UniProt P19332); assay: ELISA tau-tau binding assay; neonatal tau in the solid phase

Measured: binding

full-length recombinant human tau protein (htau40) (from UniProt P10636 2-758)
binds: all assays above
